Reference: paper PMC8437979
Results are given in words; binding and its absence hold for the method and conditions named. Binding seen in cells or lysates may run through a third protein. Binding can be weak; no strength is given.

Protein sequences, listed by entry. Tags and fused reporters are not part of them. Lines headed by an entry give the natural chain unless they say otherwise; changes in a name come on top.
UniProt Q99942: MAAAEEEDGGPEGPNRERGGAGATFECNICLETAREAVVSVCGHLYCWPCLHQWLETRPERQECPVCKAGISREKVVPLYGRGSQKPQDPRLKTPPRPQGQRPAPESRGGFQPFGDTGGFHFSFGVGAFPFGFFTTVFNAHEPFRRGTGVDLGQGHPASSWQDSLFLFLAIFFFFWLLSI
UniProt Q09028: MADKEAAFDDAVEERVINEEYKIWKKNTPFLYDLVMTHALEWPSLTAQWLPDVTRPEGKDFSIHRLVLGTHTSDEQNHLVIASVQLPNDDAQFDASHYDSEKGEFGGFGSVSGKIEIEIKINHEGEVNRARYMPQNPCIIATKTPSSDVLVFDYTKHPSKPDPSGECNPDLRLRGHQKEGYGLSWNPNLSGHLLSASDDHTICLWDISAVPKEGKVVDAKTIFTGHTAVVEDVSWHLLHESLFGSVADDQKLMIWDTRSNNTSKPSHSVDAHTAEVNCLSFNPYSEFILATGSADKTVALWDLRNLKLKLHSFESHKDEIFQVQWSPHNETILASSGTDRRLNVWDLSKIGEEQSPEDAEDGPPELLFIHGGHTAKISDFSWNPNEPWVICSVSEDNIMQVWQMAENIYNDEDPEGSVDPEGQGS

Molecular target: Flag-tagged RNF5 catalytically inactive RING domain mutant (RM) (UniProt Q99942)
Assay: co-IP; HEK293T cells transfected with Flag-tagged RNF5 WT, RM or ∆CT; endogenous RBBP4 detected by western blot; MG132 (10 µm, 4 h) before lysis; TBS-lysis buffer (50 mM Tris-HCl pH 7.5, 150 mM NaCl, 0.5% Nonidet P-40), protein A/G agarose

Endogenous RBBP4 (retinoblastoma binding protein 4) of HEK293T cells (from UniProt Q09028 1-425)
binding: binds
